# Test results published in PubChem BioAssay AID1487 (National Center for Advancing Translational Sciences (NCATS), 2009).
# The list shows a part of the results. These are further read-outs of the screen, such as a control signal, another cell line or another target. No call is given for them. Most of these compounds were active or inconclusive in the main read-out, so they are no random draw. The note in brackets gives the kind of curve behind each potency; many fits are weak.
# Test: qHTS Assay for Modulators of Lamin A Splicing
# Conditions: HeLa LMNA splicing GFP/RFP minigene ratio, 48 h
# In short: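 S3 HeLa stable clones carrying a lamin A-EGFP splicing minigene plus DsRed2 were seeded at 600 cells/well in Opti-MEM with 2% FBS, pin-dosed and incubated 48 h at 37°C. Acumen cytometry (488 nm) gave the GFP/RFP total-intensity ratio.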
# [1] = measured here: RFP viability control channel
# [2] = measured here: GFP splicing reporter channel
Compound,AC50 [1],AC50 [2]
O=C(CSc1nccn1Cc1ccco1)Nc1cccc(F)c1,"35.5 µM [falling, single point]",–
Cc1sc2ncnc(N(C)Cc3cccs3)c2c1C,"31.6 µM [rising, single point]","15.8 µM [rising, single point]"
Cc1cc(C)c(C)c(S(=O)(=O)NNC(=O)c2cccc(S(=O)(=O)N3CCOCC3)c2)c1C,–,"35.5 µM [rising, single point]"
Cc1cc(N2CCCCC2)n2ncc(-c3ccccc3)c2n1,"12.6 µM [rising, partial curve]","12.6 µM [rising, partial curve, poor fit]"
O=C(CSc1nc2c(sc3ccccc32)c(=O)n1-c1ccccc1)NCc1ccco1,"31.6 µM [falling, single point]","35.5 µM [falling, single point]"
O=C(CSc1ncnc2scc(-c3ccccc3)c12)N1CCN(c2ccccc2F)CC1,"22.4 µM [rising, partial curve]","15.8 µM [rising, single point]"
CC1Cc2ccccc2N1c1ncnc2nc[nH]c12 (stereo unspecified),"35.5 µM [falling, single point]",–
CNc1ccccc1C(C)(C)c1cc(-c2ccc(F)cc2)no1,"6.31 µM [rising, partial curve]",–
O=C(N/N=C/c1ccncc1)c1ccccc1OCc1ccc(Br)cc1,"11.2 µM [rising, partial curve]","3.98 µM [rising, partial curve]"
Cc1ccc(NC(=O)CSc2nn(-c3ccc(Cl)cc3)c(=S)s2)cc1S(=O)(=O)N(C)C,"6.31 µM [rising, full curve]",–
CC(NC(=O)COc1ccccc1-c1ccccc1)c1ccccc1 (stereo unspecified),"35.5 µM [rising, single point]",–
C=CCc1cc(OC)ccc1OCCOCCC(C(=O)OCC)C(=O)OCC,"0.0447 µM [falling, full curve, poor fit]",–
Cc1ccc(-c2nc(NC(=O)c3nn(C)cc3[N+](=O)[O-])sc2C)cc1C,–,"3.16 µM [falling, single point]"
COc1ccc(OC)c(Nc2nc(-c3ccccc3O)nc3ccccc23)c1,"39.8 µM [falling, partial curve, poor fit]",–
Cc1nnc(SCc2ccc(F)cc2)n1NC/C=C/c1ccccc1,"20 µM [rising, single point]",–
Cc1ccc(S(=O)(=O)N2CCOC2CNC(=O)C(=O)NCCc2c[nH]c3ccccc23)cc1 (stereo unspecified),"0.00316 µM [rising, full curve, poor fit]",–

# Some of the entries so far, with tabs:
Compound	AC50 [1]	AC50 [2]
O=C(CSc1ncnc2scc(-c3ccccc3)c12)N1CCN(c2ccccc2F)CC1	22.4 µM [rising, partial curve]	15.8 µM [rising, single point]
C=CCc1cc(OC)ccc1OCCOCCC(C(=O)OCC)C(=O)OCC	0.0447 µM [falling, full curve, poor fit]	–
